From patent publication US20250304973 come the findings set out here.

As usually defined, the Kd is the free concentration of one partner at which half of the binding sites on the other are occupied at equilibrium, for simple one-to-one binding. Read a high Kd as weaker binding.

For some assays here: Negatives hold for the conditions tested. For some assays here: Construct, isoform or probe ends are uncertain for at least one entry.

For data set [1], the system named is alpha-thrombin (native) (Homo sapiens). Briefly: ELONA. The following applies: purified native protein, single-stranded DNA.
Data set [2] has as its target thrombin / Factor II in citrated plasma or whole blood (Homo sapiens) (UniProt P00734). Briefly: inhibition of the protein. The following applies: protein in an extract, protein details: endogenous, Rockland citrated blood R214-0050, single-stranded DNA; for functional effect of the aptamer (% reduction of Factor II activity): 2 uM in citrated plasma, 2 h.
For data set [3], the system named is alpha-thrombin (native) (Homo sapiens). The data set is described as follows: binding assay. Conditions: CITED, purified native protein, single-stranded DNA.
Data set [4] relates to clot-bound thrombin (Homo sapiens). The data set is described as follows: inhibition of the protein. The following applies: protein in an extract, protein details: endogenous, washed clots from platelet-rich plasma, single-stranded DNA; for functional effect of the aptamer: concentration-dependent, 50 mM Tris pH 7.4, 100 mM NaCl, 37 C.
The test system of data set [5] is thrombin (inhibitor screening kit enzyme). Briefly: inhibition of the protein. The following applies: dose-dependent inhibition of AMC substrate cleavage, 37 C, protein details: Abcam ab197007 kit, single-stranded DNA, dose not given here.
Data set [6] deals with thrombin / Factor II in rat whole blood (Rattus norvegicus) (UniProt P18292). Briefly: inhibition of the protein. Conditions: protein in an extract, protein details: endogenous, single-stranded DNA, dose not given here.

With “AGGGGCTCTAGGGTGGGTAGGATGGTGAGACCGCAGCGT [AYA1809007]”, in data set [1] (label: biotin (ELISA)), the binding result was “binds”. The functional effect of the aptamer (% reduction of Factor II activity) in data set [2] (PT 2-fold, APTT 3-fold increase, label: biotin (ELISA)) was above 75.

With GGTTGGTGTGGTTGG [HD1], the binding result in data set [3] (binds exosite I of prothrombin and thrombin) is “binds”. For the same sequence, the functional effect of the aptamer (% inhibition of clot-bound thrombin) in data set [4] (CITED, in vivo, dose not given here) is above 80.

In turn, “TCGTCAAGGTACGGTTGGGGGGGTGGGTGTTGACGTTGAA [AYA1809004]” had an equilibrium dissociation constant (Kd) in data set [1] (20 mM Tris pH 7.5, 150 mM NaCl, 0.1% BSA, 0.1% Tween 20, salmon sperm DNA, RT, competed by 100-fold unlabeled aptamer, label: 5' biotin (ELISA)) of 13 nM. The “functional effect of the aptamer” value in data set [4] (less than AYA1809002, label: 5' biotin (ELISA)) is “active”; in data set [5] (label: 5' biotin (ELISA)), “active”. In data set [2] (PT 3-fold, APTT about 4-fold increase, label: 5' biotin (ELISA)), this sequence returned a functional effect of the aptamer (% reduction of Factor II activity) above 85.

With AGTCCGTGGTAGGGCAGGTTGGGGTGACT [HD22], in data set [3] (binds exosite II), the binding result was “binds”.

Turning to “GCGGTGTTGCTGGGGTTGGGAGGTTGGAGGAAGCAATCGC [AYA1809002]”, the “functional effect of the aptamer” value was “active” in data set [4] (stronger than AYA1809004, label: 5' biotin (ELISA, BLI)); “active” in data set [5] (label: 5' biotin (ELISA, BLI)); “active” in data set [6] (label: 5' biotin (ELISA, BLI)).

As to “GCGGTGTTGCTGGGGTTGGGAGGTTGGAGGAAGCAATCGC [3'PEG AYA1809002]”, the “functional effect of the aptamer” value in data set [6] (3' PEG spacer (3Sp18), variant of AYA1809002) is given as “active”.

On to “TCGTCAAGGTACGGTTGGGGGGGTGGGTGTTGACGTTGAA [3'Chol AYA1809004]”, for which the “functional effect of the aptamer” value in data set [2] (3' cholesterol-TEG (3CholTEG), variant of …, dose not given here) is reported as “not active”.
